Measured values from paper PMC4877669.
Residue numbers refer to the chain shown, from its start. Results are given in words; binding and its absence hold for the method and conditions named. Binding seen in cells or lysates may run through a third protein. Some results given as binding are weak or reduced against the parent protein; the word gives no strength. Tags and fused reporters may be left off the sequences shown.

Columns and labels:
Assay in all cases: pull-down; GST fusion proteins or GST immobilized on glutathione-sepharose beads, incubated with total lysates of HEK293 cells expressing dynamin 2-GFP or GFP-Triad3A 1 h at 4°C; washes with lysis buffer with 1% Triton X-100; immunoblot with anti-GFP; only the target purified
[1] = molecular target: T1, GST-Arc(195-199A) (mouse) (UniProt Q9WV31)
T1 sequence: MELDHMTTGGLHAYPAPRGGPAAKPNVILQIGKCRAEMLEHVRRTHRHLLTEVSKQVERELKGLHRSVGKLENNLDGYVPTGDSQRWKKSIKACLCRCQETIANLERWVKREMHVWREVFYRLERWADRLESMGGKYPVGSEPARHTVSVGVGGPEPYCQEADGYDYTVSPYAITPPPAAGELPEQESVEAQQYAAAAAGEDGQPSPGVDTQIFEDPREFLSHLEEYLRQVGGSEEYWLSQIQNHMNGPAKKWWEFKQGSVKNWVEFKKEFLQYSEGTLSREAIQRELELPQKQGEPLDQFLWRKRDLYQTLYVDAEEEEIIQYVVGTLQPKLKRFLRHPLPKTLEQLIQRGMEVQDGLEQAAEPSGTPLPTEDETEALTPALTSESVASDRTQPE

GST-Arc(W197A) (mouse) = molecular target: T2, GST-Arc(W197A) (mouse) (UniProt Q9WV31)
T2 sequence: T1 sequence with A195Q, A196S, A198G, A199P

GST-Arc(WT) (mouse) = molecular target: T3, GST-Arc(WT) (mouse) (UniProt Q9WV31)
T3 sequence: T1 sequence with A195Q, A196S, A197W, A198G, A199P

Measured: binding

GFP-Triad3A (from UniProt Q9NWF9-2 1-866)
binds: all assays above
